Assay results: patent publication US11382949B2 (BOEHRINGER INGELHEIM ANIMAL HEALTH USA INC., priority 2016, dated 2022)

Experiment: general procedure: solution-phase peptide synthesis; BOP-Cl, DIEA
Details: for cyclisation yield: cyclisation step
[1] = late stage modification step, hydrochloride

“(2R)-2-[(2S)-2-[[(2R)-2-[(2S)-2-[tert-butoxycarbonyl(methyl)amino]-4,4-dimethyl-pentanoyl]oxypropanoyl]-methyl-amino]-4-fluoro-4-methyl-pentanoyl]oxy-3-[4-(trifluoromethylsulfanyl)phenyl]propanoic Acid (TC44-46)” showed a step yield (late stage modification step) of 99%.
For “(S)-((R)-1-(benzyloxy)-1-oxo-3-(4-(trifluoromethylthio)phenyl)propan-2-yl)-2-((R)-2-((S)-4,4-dimethyl-2-(methylamino)pentanoyloxy)-N-methylpropanamido)-4-fluoro-4-methylpentanoate Hydrochloride (TA44-46)”, the step yield [1] was 97%.
“(6S,9R,12S,15R,18R,21R,24S,27R)-12,24-bis(2-fluoro-2-methylpropyl)-6,18-diisobutyl-2,2,5,9,11,17,21,23-octamethyl-4,7,10,13,16,19,22,25-octaoxo-15,27-bis(4-(trifluoromethoxy)benzyl)-3,8,14,20,26-pentaoxa-5,11,17,23-tetraazaoctacosan-28-oic acid” showed a step yield (late stage modification step) of 71%.
In the case of “(1R)-1-[[(2S)-1-[[(2R)-1-(benzyloxy)-1-oxo-3-[4-(trifluoromethoxy)phenyl]propan-2-yl]oxy]-4-fluoro-4-methyl-1-oxopentan-2-yl](methyl)carbamoyl]ethyl (2R)-2-[[(tert-butoxy)carbonyl](methyl)amino]-4-methylpentanoate”, the step yield (coupling step) is reported as 67%.
Substance “(6S,9R,12S,15S)-12-(2-fluoro-2-methylpropyl)-2,2,5,9,11-pentamethyl-6-neopentyl-4,7,10,13-tetraoxo-15-(4-(trifluoromethylthio)benzyl)-3,8,14-trioxa-5,11-diazahexadecan-16-oic Acid” has a step yield (late stage modification step) of 98%.
With “(1R)-1-[[(2S)-1-[[(2R)-1-(benzyloxy)-1-oxo-3-[4-(trifluoromethoxy)phenyl]propan-2-yl]oxy]-4-fluoro-4-methyl-1-oxopentan-2-yl](methyl)carbamoyl]ethyl (2R)-4-methyl-2-(methylamino)pentanoate Hydro-chloride” the step yield [1] was 93%.
Work on “(3S,6R,9S,12S,15S,18R,21S,24S)-3,15-bis(2-fluoro-2-methylpropyl)-4,6,10,16,18,22-hexamethyl-9,21-dineopentyl-12,24-bis(4-(trifluoromethylthio)benzyl)-1,7,13,19-tetraoxa-4,10,16,22-tetraazacyclotetracosan-2,5,8,11,14,17,20,23-octaone” yielded a cyclisation yield of 20%.
Substance “(3S,6R,9S,12R,15S,18R,21S,24R)-3,15-bis(2-fluoro-2-methylpropyl)-4,6,10,16,18,22-hexamethyl-9,21-dineopentyl-12,24-bis(4-(trifluoromethylthio)benzyl)-1,7,13,19-tetraoxa-4,10,16,22-tetraazacyclotetracosan-2,5,8,11,14,17,20,23-octaone” has a cyclisation yield of 37%.
